# Results from article PMC8354635.
# No constants are given. Whether binding was seen depends on the method and setting. Binding seen in cells or lysates may run through a third protein. Some entries that bind do so weakly or less than the wild type.
# T1: HASt-C21orf70 (UniProt Q9NSI2)
# T1 sequence: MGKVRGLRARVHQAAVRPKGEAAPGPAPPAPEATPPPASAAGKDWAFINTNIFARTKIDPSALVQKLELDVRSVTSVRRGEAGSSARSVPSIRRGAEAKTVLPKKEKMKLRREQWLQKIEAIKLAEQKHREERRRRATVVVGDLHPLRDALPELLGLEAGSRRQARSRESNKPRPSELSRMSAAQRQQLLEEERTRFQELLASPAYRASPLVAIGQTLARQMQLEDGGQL
# Molecular target: T1, HASt-C21orf70
# Test: pull-down; StrepTactin affinity purification of HASt-C21orf70 from HEK293 lysate (10 mM Tris pH 7.5, 100 mM KCl, 2 mM MgCl2, 1 mM DTT, 0.5% NP-40), beads 60 min at 4°C, elution with 2 mM biotin; eluates immunoblotted
binder,measurement,value
"NOC4L (protein, UniProt Q9BVI4 1-516) MEREPGAAGVRRALGRRLEAVLASRSEANAVFDILAVLQSEDQEEIQEAVRTCSRLFGALLERGELFVGQLPSEEMVMTGSQGATRKYKVWMRHRYHSCCNRLGELLGHPSFQVKELALSALLKFVQLEGAHPLEKSKWEGNYLFPRELFKLVVGGLLSPEEDQSLLLSQFREYLDYDDTRYHTMQAAVDAVARVTGQHPEVPPAFWNNAFTLLSAVSLPRREPTVSSFYVKRAELWDTWKVAHLKEHRRVFQAMWLSFLKHKLPLSLYKKVLLIVHDAILPQLAQPTLMIDFLTRACDLGGALSLLALNGLFILIHKHNLEYPDFYRKLYGLLDPSVFHVKYRARFFHLADLFLSSSHLPAYLVAAFAKRLARLALTAPPEALLMVLPFICNLLRRHPACRVLVHRPHGPELDADPYDPGEEDPAQSRALESSLWELQALQRHYHPEVSKAASVINQALSMPEVSIAPLLELTAYEIFERDLKKKGPEPVPLEFIPAQGLLGRPGELCAQHFTLS",binding,binds
